Record: PubChem BioAssay AID1224829 (NIAID, 2016)

Purpose: 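Genes needed for LPS-driven NF-kappaB p65 nuclear entry in mouse macrophages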 (follow-up of hits)
System: mouse RAW264.7 G9 macrophage reporter cells
Reagent: single siRNA against mouse genes, 100 nM
Time to read-out: 2 days of siRNA knock-down, then 40 min of LPS before fixing
Treatment: LPS (Salmonella minnesota R595) at 10 ng/ml
Detection: 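High-content images after 40 min LPS exposure; GFP-p65 nucleus to surrounding ring signal ratio, normalised to plate median and non-targeting control wells, expressed as z-score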
Scale: p65 translocation z-score: higher = more nuclear NF-kappaB p65 after LPS
Hit rule: 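An siRNA is called active when the mean z-score of its two replicates is above 2 or below -2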
Calls: active = changed p65 translocation (either direction); inactive = no clear change
In all, the deposit lists about 3,800 reagents; below is a random part of them. 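Calls cover raised and lowered translocation; gene median uses one vendor's three siRNAs; qiagen siRNAs acted more weakly than ambion siRNAs.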 Unmarked entries are inactive. Reagents against one gene are numbered here. Not all columns of the deposit are shown. Reagent sequences are not shown.

{"target": "Chchd2", "reagent no.": 1, "siRNA vendor or control pool": "ambion single siRNA", "p65 translocation z-score, replicate mean": -1.39, "p65 translocation z-score, replicate 1": -0.994}
{"target": "Chchd2", "reagent no.": 2, "siRNA vendor or control pool": "ambion single siRNA", "p65 translocation z-score, replicate mean": -0.708, "p65 translocation z-score, replicate 1": -0.0983}
{"target": "Chchd2", "reagent no.": 3, "siRNA vendor or control pool": "ambion single siRNA", "p65 translocation z-score, replicate mean": 0.511, "p65 translocation z-score, replicate 1": 0.123}
{"target": "Chchd2", "reagent no.": 4, "siRNA vendor or control pool": "qiagen single siRNA", "p65 translocation z-score, replicate mean": 1.87, "p65 translocation z-score, replicate 1": 1.14}
{"target": "Chchd2", "reagent no.": 5, "siRNA vendor or control pool": "qiagen single siRNA", "p65 translocation z-score, replicate mean": 1.98, "p65 translocation z-score, replicate 1": 1.35}
{"target": "Chchd2", "reagent no.": 6, "siRNA vendor or control pool": "qiagen single siRNA", "p65 translocation z-score, replicate mean": "-4.32 (active)", "p65 translocation z-score, replicate 1": -3.52}
{"target": "Dusp13b", "reagent no.": 1, "siRNA vendor or control pool": "ambion single siRNA", "p65 translocation z-score, replicate mean": "-5.41 (active)", "p65 translocation z-score, replicate 1": -4.85}
{"target": "Dusp13b", "reagent no.": 2, "siRNA vendor or control pool": "ambion single siRNA", "p65 translocation z-score, replicate mean": -0.758, "p65 translocation z-score, replicate 1": -1.12}
{"target": "Dusp13b", "reagent no.": 3, "siRNA vendor or control pool": "ambion single siRNA", "p65 translocation z-score, replicate mean": -0.0925, "p65 translocation z-score, replicate 1": 0.863}
{"target": "Dusp13b", "reagent no.": 4, "siRNA vendor or control pool": "qiagen single siRNA", "p65 translocation z-score, replicate mean": "2.18 (active)", "p65 translocation z-score, replicate 1": 1.75}
{"target": "Dusp13b", "reagent no.": 5, "siRNA vendor or control pool": "qiagen single siRNA", "p65 translocation z-score, replicate mean": -0.984, "p65 translocation z-score, replicate 1": -1.57}
{"target": "Dusp13b", "reagent no.": 6, "siRNA vendor or control pool": "qiagen single siRNA", "p65 translocation z-score, replicate mean": -1.82, "p65 translocation z-score, replicate 1": -1.69}
{"target": "Large2", "reagent no.": 1, "siRNA vendor or control pool": "ambion single siRNA", "p65 translocation z-score, replicate mean": -0.978, "p65 translocation z-score, replicate 1": -1.2}
{"target": "Large2", "reagent no.": 2, "siRNA vendor or control pool": "ambion single siRNA", "p65 translocation z-score, replicate mean": -1.07, "p65 translocation z-score, replicate 1": 1.33}
{"target": "Large2", "reagent no.": 3, "siRNA vendor or control pool": "ambion single siRNA", "p65 translocation z-score, replicate mean": "-3.28 (active)", "p65 translocation z-score, replicate 1": -3.28}
{"target": "Large2", "reagent no.": 4, "siRNA vendor or control pool": "qiagen single siRNA", "p65 translocation z-score, replicate mean": -0.882, "p65 translocation z-score, replicate 1": -1.49}
{"target": "Large2", "reagent no.": 5, "siRNA vendor or control pool": "qiagen single siRNA", "p65 translocation z-score, replicate mean": -0.865, "p65 translocation z-score, replicate 1": -1.7}
{"target": "Large2", "reagent no.": 6, "siRNA vendor or control pool": "qiagen single siRNA", "p65 translocation z-score, replicate mean": 1.83, "p65 translocation z-score, replicate 1": 0.733}
{"target": "Cat", "reagent no.": 1, "siRNA vendor or control pool": "ambion single siRNA", "p65 translocation z-score, replicate mean": "-3.09 (active)", "p65 translocation z-score, replicate 1": -2.59}
{"target": "Cat", "reagent no.": 2, "siRNA vendor or control pool": "ambion single siRNA", "p65 translocation z-score, replicate mean": "-2.21 (active)", "p65 translocation z-score, replicate 1": -2.86}
{"target": "Cat", "reagent no.": 3, "siRNA vendor or control pool": "ambion single siRNA", "p65 translocation z-score, replicate mean": -1.65, "p65 translocation z-score, replicate 1": -1.65}
{"target": "Cat", "reagent no.": 4, "siRNA vendor or control pool": "qiagen single siRNA", "p65 translocation z-score, replicate mean": 0.652, "p65 translocation z-score, replicate 1": 0.652}
{"target": "Cat", "reagent no.": 5, "siRNA vendor or control pool": "qiagen single siRNA", "p65 translocation z-score, replicate mean": 1.55, "p65 translocation z-score, replicate 1": 1.03}
{"target": "Cat", "reagent no.": 6, "siRNA vendor or control pool": "qiagen single siRNA", "p65 translocation z-score, replicate mean": 0.723, "p65 translocation z-score, replicate 1": 0.264}

Individual results from the list:
Under “p65 translocation z-score, replicate mean”, Dusp13b #2, siRNA vendor or control pool ambion single siRNA is entered as -0.758
Entry for Cat #6, siRNA vendor or control pool qiagen single siRNA in “p65 translocation z-score, replicate 1”: 0.264
Dusp13b #5, siRNA vendor or control pool qiagen single siRNA, p65 translocation z-score, replicate mean = -0.984
Entry for Large2 #3, siRNA vendor or control pool ambion single siRNA under “p65 translocation z-score, replicate 1”: -3.28 (active)

Next entries follow:
{"target": "Brpf1", "reagent no.": 1, "siRNA vendor or control pool": "ambion single siRNA", "p65 translocation z-score, replicate mean": 0.891, "p65 translocation z-score, replicate 1": 0.281}
{"target": "Brpf1", "reagent no.": 2, "siRNA vendor or control pool": "ambion single siRNA", "p65 translocation z-score, replicate mean": 0.838, "p65 translocation z-score, replicate 1": 1.85}
{"target": "Brpf1", "reagent no.": 3, "siRNA vendor or control pool": "ambion single siRNA", "p65 translocation z-score, replicate mean": "-3.94 (active)", "p65 translocation z-score, replicate 1": -4.3}
{"target": "Brpf1", "reagent no.": 4, "siRNA vendor or control pool": "qiagen single siRNA", "p65 translocation z-score, replicate mean": "-4.43 (active)", "p65 translocation z-score, replicate 1": -3.37}
{"target": "Brpf1", "reagent no.": 5, "siRNA vendor or control pool": "qiagen single siRNA", "p65 translocation z-score, replicate mean": "-3.15 (active)", "p65 translocation z-score, replicate 1": -3.15}
{"target": "Brpf1", "reagent no.": 6, "siRNA vendor or control pool": "qiagen single siRNA", "p65 translocation z-score, replicate mean": -1.71, "p65 translocation z-score, replicate 1": -1.71}
{"target": "Ctif", "reagent no.": 1, "siRNA vendor or control pool": "ambion single siRNA", "p65 translocation z-score, replicate mean": "-2.81 (active)", "p65 translocation z-score, replicate 1": -3.75}
{"target": "Ctif", "reagent no.": 2, "siRNA vendor or control pool": "ambion single siRNA", "p65 translocation z-score, replicate mean": -0.56, "p65 translocation z-score, replicate 1": 0.515}
{"target": "Ctif", "reagent no.": 3, "siRNA vendor or control pool": "ambion single siRNA", "p65 translocation z-score, replicate mean": 1.48, "p65 translocation z-score, replicate 1": 1}
{"target": "Ctif", "reagent no.": 4, "siRNA vendor or control pool": "qiagen single siRNA", "p65 translocation z-score, replicate mean": 0.684, "p65 translocation z-score, replicate 1": -0.425}
{"target": "Ctif", "reagent no.": 5, "siRNA vendor or control pool": "qiagen single siRNA", "p65 translocation z-score, replicate mean": -0.53, "p65 translocation z-score, replicate 1": -1.22}
{"target": "Ctif", "reagent no.": 6, "siRNA vendor or control pool": "qiagen single siRNA", "p65 translocation z-score, replicate mean": 0.0398, "p65 translocation z-score, replicate 1": -1.2}
